# Test results: PubChem BioAssay AID1347423 (Functional Genomics Laboratory (NCATS/FGL), 2020)
# Screen size: about 52,000 sequences; about 210 (0.4%) were called active.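 Rule for the calls: active = gene whose silencing raises cell survival under the drug, median off-target-corrected z-score across its silencing RNAs 2 or more; inactive = the rest.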 The list shows a part of the results.
# Assay: Resistance to Poly (ADP-Ribose) Polymerase inhibitor: Gene Identification via Genome-wide siRNA Screen
# Conditions: mouse BRCA2 R2336H ES cells, olaparib, CellTiter-Glo viability; stronger effect = higher value
# Method in brief: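 Genome-wide siRNA screen (3 siRNAs/gene, 20 nM) in mouse ES cells carrying hypomorphic BRCA2 R2336H; olaparib 500 nM added 48 h post-transfection, CellTiter-Glo viability 72 h later. Normalized to plate-median negative control; MAD z-scores, gene median, seed-adjusted.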
row,Sequence,z-score
1,CGCGACAGAAUCAGUACAATT against Hnf4g,inactive: 1.11
2,GGGUGAAUAAAUAAAGCUGTT against 2610040C18Rik,inactive: -0.451
3,GAGAAACAACAAUUUGGGATT against LOC435023,inactive: -0.531
4,GGAAGAUUCAGCCUUUAGATT against Hcr,inactive: 0.96
5,GGUACUUUGAUGACGAGUUTT against Akt2,inactive: -0.562
6,CGAUGAAUUUAGGAGAUCUTT against AF397014,inactive: -0.19
7,GGCAAAUUGAGUUUUAGCATT against Waspip,inactive: -0.0406
8,GGGCCAGCUUUCAAUAUUGTT against Man2a1,inactive: -0.63
9,GCUCGAAAUGACGUGUACATT against Gna-rs1,inactive: -0.944
10,GGAUACUGGCAUGAAAUUGTT against Slc22a2,inactive: -0.619
11,CGAUGGUCGAAGGAUUGUCTT against Tnfsf4,inactive: -0.645
12,CCAUUUCAGGCAUGAAGAATT against Tsga10,inactive: -1.3
13,GGGAUGCUGUAGAUAUUAATT against Fcgr2b,inactive: 0.654
14,GGUGCUCGAAAACUGGUUCTT against Tbrg1,inactive: 1.38
15,GGUGUUCAGAUGGUUCCCATT against Exosc1,inactive: -1.62
16,GCACUUAAGACCAAGCCUCTT against Odd1,inactive: -0.0829
17,GCCCAAAGUGAUUCACUAGTT against Acvrl1,inactive: 0.34
18,GCCUCUGAAAGUGUAAUUATT against 1700039D13Rik,inactive: -0.85
19,GGAUGUUCUGAGGACCAACTT against Cct6a,inactive: -3.2
20,CCCUAUUGAGAAGUGUAUGTT against Il4i1,inactive: 0.79
21,GCUAACUCUUCGGCAGGAATT against Scospondin,inactive: -0.989
22,GGAUUUGGAUUGACCCUUGTT against Grwd1,inactive: -1.11
23,CCAACCUCCCAUUCUGAAUTT against 4732467L16Rik,inactive: 1.47
24,GGACUGCUUUUGCUAUGAATT against Cys1,inactive: -0.657
25,GAUCUUAGCUGUGUGUGUGTT against Cxcl4,inactive: 0.39
26,GGUGAUCCAAGACUUCCAGTT against Actl6b,inactive: -0.0937
27,GGAUGUCUUGCUUCACCGUTT against Ripk5,inactive: -1.33

row,Sequence,z-score
1,CCGGCUAAAUCACCGUGCUTT against Skd3,inactive: 0.364
2,UUGUCAUUCACUUGAUGAATT against Hist3h2ba,inactive: 0.612
3,GGCAUCAUCGCCAUCUUCATT against ORF31,inactive: -0.384
4,GGAACUCACUUACUUAUGUTT against Prrx2,inactive: 0.0726
5,GCUCCACCGAGAAAUUACUTT against 2610529C04Rik,inactive: -0.711
6,GGACCACCAGACAUUCUUUTT against Lrp12,inactive: 0.65
7,GGAAGAACAACGAAGAAACTT against 2810484M10Rik,inactive: -0.379
8,GCCUGUGCUUAAUUUAAGGTT against Yme1l1,inactive: 0.219
9,GGAUCAAUGCAUGGAAUUCTT against Ugdh,inactive: 2.32
10,GGUCAGAUAAAACUCUUCATT against Bmi1,inactive: 1.33
11,GGAUUUUGCUCAGACGACATT against Taf1a,inactive: -1.48
12,GGUAACCACAGUAGUGGCATT against Gsk3b,inactive: -0.448
13,GGAUGACUUCUUCAAGCCATT against BC016495,inactive: 2.41
14,GGAAAAAUCAUGGAGAAAATT against Dhodh,inactive: 0.455
15,GCUCUUGACUCACUCAGCATT against 9430083I22,inactive: -1.19
16,ACCGAAAAUCUUCAGUACUTT against LOC544988,inactive: 0.484
17,GGCGAAAAUUACUCGAAAGTT against Penk1,inactive: 0.171
18,GGUCUUAAGGAGAAAUGAATT against Cbln2,inactive: -0.576
19,GGAUCACAGUGGUUCAGAATT against Snai2,inactive: -2.89
20,GGUCCUCCCAUAAUCUAGUTT against BC046404,inactive: 1.46
21,GCUCCUCGAAUCCCUGUAGTT against Per3,inactive: 1.64
22,CCAGUUCAAGAGACUCGUATT against Dio1,inactive: -0.484
23,GGUCAUCACUUAUUACCCATT against Ptges2,inactive: 0.133
24,CCAUCCCAUAUAACGAUCUTT against Oat,inactive: 0.0491
25,GCAGACUGAAUAUUGAAAGTT against Cry1,inactive: -0.36
26,CCCAUAGAUUUUUUGACAGTT against Hbb-y,inactive: 1.34
27,GGACUCCAGAGAAAGAGGCTT against Tcf15,inactive: 0.357

row,Sequence,z-score
1,GCUGUAUGAAGUUAGAUUUTT against Car8,inactive: 1.58
2,GGUUUGUUUUACAAAAUGCTT against Zdhhc5,inactive: 0.648
3,GGUUGAACCCACUCUGCAATT against Olfr1113,inactive: -2.16
4,CCAACACUGAGCUCAGAAGTT against Igfbp2,inactive: 0.322
5,GCUUUAGUACAGGCCUCUATT against Pols,inactive: -1.09
6,GCACUUACCCACUCUGAACTT against Gt4-1,inactive: -0.497
7,GGUUUUUCCAGCUGUUUUCTT against Olfr618,inactive: 2.04
8,GCUCUUCAUAACUCUUGCUTT against Olfr1392,inactive: -0.036
9,GCUUGUGCGAGUGUUGGAUTT against Has1,inactive: 0.514
10,GCACCCGGCACUAGAAAAATT against Shoc2,inactive: 0.638
11,GGCACAAUCACAUCACAGCTT against Lrrtm2,inactive: 0.159
12,CGAGAUCAGAAAACUGACUTT against Cpa4,inactive: 0.314
13,UGACUGGGCUAAUAGGAGATT against Olfr1469,inactive: 0.895
14,GGAUGCAGUUCAAAAGAGATT against Acox2,inactive: 1.2
15,GGCAUGGACAUUGAUGACATT against Dnajb1,inactive: 0.341
16,GGAUUUUGAUCUAAUGAGATT against Zfp354c,inactive: 0.236
17,CCCACUGCUCUAUUCAACUTT against Olfr484,inactive: 1.25
18,GCAUUCCAAAUGGUAGACATT against Lgals4,inactive: -0.176
19,GGACAGCAAAAAAGAUGUGTT against Myo6,inactive: 0.761
20,GGAGCAAGCAUGCAAGGUGTT against Cstf2,inactive: -1.03
21,GGCCAGUCACUAAAAUCACTT against Mbd3l1,inactive: 0.69
22,GGAAAUAAGACCAACAUACTT against Arhgap19,inactive: -0.751
23,GGGACUUUGGAUUCAAGCGTT against Slp,inactive: 0.191
24,GGCCAGGAGAUUCCUAUGATT against 9330132O05Rik,inactive: -0.955
25,GGCACUCAAUAAAUAUUUGTT against Tubb5,inactive: 0.163
26,GGAUAUGAUGUCAAACCCUTT against AI663987,inactive: -0.0725
27,GGCACUUUCGGGAAUUCACTT against Nup160,inactive: -2.94

row,Sequence,z-score
1,GCUGUUUCUACAUCAUCUATT against Nup210,inactive: 0.25
2,GGGACUUCUUGUGAAUGGATT against Mobp,inactive: -0.971
3,CCCUUGAAGAUCACUUAGCTT against Apln,inactive: 0.228
4,CGAAGUGUGGCUGAUUCAGTT against Hebp2,inactive: -1.71
5,GCUCAUCGACGGUCACUUUTT against 2310057D15Rik,inactive: -0.624
6,GGAACACAGUUAAGUGGAUTT against V1ri7,inactive: 1.3
7,GGUGCUAAUCCCAAUUUGATT against Cdkn2c,inactive: 0.56
8,GGAUCAAAUAACAAUGACATT against A330009G12Rik,inactive: -0.0208
9,GGUGUACCAAGCUGUGACATT against Rgmb,inactive: -0.444
10,GCAUCAUUCGCUGUGAUGATT against Trim23,inactive: 0.1
11,GCUACCUCUUGCAUGGGAGTT against Bivm,inactive: 0.428
12,UAAUAAAAGGAGGUGGUUCTT against MGC58426,inactive: -0.788
13,GGAGAAACUUCGAGAUAGATT against 0610042E07Rik,inactive: 0.228
14,CCCUAGCAAAGCUACUUUCTT against 1700029B21Rik,inactive: -1.86
15,GGAGAAGUUCUGAACUGCUTT against MGC27742,inactive: -0.926
16,GCAAGAAGGGACACAGUUUTT against Plk1,inactive: 0.0578
17,GGACAAAUUUGGAUAAAUGTT against Abcg8,inactive: -0.827
18,GGGAGGCAGAAAGUCUUCUTT against Olfr1043,inactive: -0.617
19,GGACAAAACUAAACAGCAATT against Smarcal1,inactive: -0.645
20,GGAUAGGGUCCAUCAUGGATT against Rcn3,inactive: -0.863
21,GGAAGAGAAACGACAAAAUTT against Olfr293,inactive: 1.18
22,GGCAACCUGCUGGUAAUCATT against Adrb3,inactive: -0.361
23,GCGGAAGGUUUACAAUGAUTT against Dyrk1a,inactive: 0.94
24,GGAGGAUGGAGUCAUAUAUTT against Gm773,inactive: -0.0566

# A stretch of the results above:
row,Sequence,z-score
3,GGUUGAACCCACUCUGCAATT against Olfr1113,inactive: -2.16
4,CCAACACUGAGCUCAGAAGTT against Igfbp2,inactive: 0.322
5,GCUUUAGUACAGGCCUCUATT against Pols,inactive: -1.09
6,GCACUUACCCACUCUGAACTT against Gt4-1,inactive: -0.497
7,GGUUUUUCCAGCUGUUUUCTT against Olfr618,inactive: 2.04
8,GCUCUUCAUAACUCUUGCUTT against Olfr1392,inactive: -0.036
9,GCUUGUGCGAGUGUUGGAUTT against Has1,inactive: 0.514
10,GCACCCGGCACUAGAAAAATT against Shoc2,inactive: 0.638
11,GGCACAAUCACAUCACAGCTT against Lrrtm2,inactive: 0.159
12,CGAGAUCAGAAAACUGACUTT against Cpa4,inactive: 0.314
13,UGACUGGGCUAAUAGGAGATT against Olfr1469,inactive: 0.895
14,GGAUGCAGUUCAAAAGAGATT against Acox2,inactive: 1.2
15,GGCAUGGACAUUGAUGACATT against Dnajb1,inactive: 0.341
16,GGAUUUUGAUCUAAUGAGATT against Zfp354c,inactive: 0.236
17,CCCACUGCUCUAUUCAACUTT against Olfr484,inactive: 1.25
18,GCAUUCCAAAUGGUAGACATT against Lgals4,inactive: -0.176
19,GGACAGCAAAAAAGAUGUGTT against Myo6,inactive: 0.761
20,GGAGCAAGCAUGCAAGGUGTT against Cstf2,inactive: -1.03
21,GGCCAGUCACUAAAAUCACTT against Mbd3l1,inactive: 0.69
22,GGAAAUAAGACCAACAUACTT against Arhgap19,inactive: -0.751
23,GGGACUUUGGAUUCAAGCGTT against Slp,inactive: 0.191
24,GGCCAGGAGAUUCCUAUGATT against 9330132O05Rik,inactive: -0.955
25,GGCACUCAAUAAAUAUUUGTT against Tubb5,inactive: 0.163
26,GGAUAUGAUGUCAAACCCUTT against AI663987,inactive: -0.0725
27,GGCACUUUCGGGAAUUCACTT against Nup160,inactive: -2.94
